In the supplement of paper PMC12067093, “Discovery and optimisation of a covalent ligand for TRIM25 and its application to targeted protein ubiquitination” (Chemical Science, 2025):
This is one part of the list.

The chains behind the UniProt entries cited, without tags or fusion partners. Where a name states a change or a piece, a line headed by the entry shows the natural chain unless it says otherwise.
UniProt P05556, whole entry, looked up: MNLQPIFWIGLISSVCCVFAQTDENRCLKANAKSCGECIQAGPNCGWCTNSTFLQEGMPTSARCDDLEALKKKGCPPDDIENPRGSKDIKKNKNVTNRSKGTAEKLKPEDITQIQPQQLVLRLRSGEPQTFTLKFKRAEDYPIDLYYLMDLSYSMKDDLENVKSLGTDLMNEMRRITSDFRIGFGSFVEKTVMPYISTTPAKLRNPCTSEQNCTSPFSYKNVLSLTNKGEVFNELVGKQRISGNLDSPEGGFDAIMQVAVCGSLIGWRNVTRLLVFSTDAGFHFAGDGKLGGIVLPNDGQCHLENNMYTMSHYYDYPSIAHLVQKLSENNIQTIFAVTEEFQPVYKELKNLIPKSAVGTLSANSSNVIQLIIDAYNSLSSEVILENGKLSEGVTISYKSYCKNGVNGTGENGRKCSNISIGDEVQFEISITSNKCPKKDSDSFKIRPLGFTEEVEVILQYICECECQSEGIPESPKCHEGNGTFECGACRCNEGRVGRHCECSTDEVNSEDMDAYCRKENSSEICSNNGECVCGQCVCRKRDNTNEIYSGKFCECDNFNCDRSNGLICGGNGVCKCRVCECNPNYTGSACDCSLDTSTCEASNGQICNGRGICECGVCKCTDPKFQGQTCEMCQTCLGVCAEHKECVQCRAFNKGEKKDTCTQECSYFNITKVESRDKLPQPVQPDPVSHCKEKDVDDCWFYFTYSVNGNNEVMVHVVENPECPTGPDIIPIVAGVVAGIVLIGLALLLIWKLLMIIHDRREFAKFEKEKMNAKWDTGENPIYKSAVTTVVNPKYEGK
UniProt Q86VI3: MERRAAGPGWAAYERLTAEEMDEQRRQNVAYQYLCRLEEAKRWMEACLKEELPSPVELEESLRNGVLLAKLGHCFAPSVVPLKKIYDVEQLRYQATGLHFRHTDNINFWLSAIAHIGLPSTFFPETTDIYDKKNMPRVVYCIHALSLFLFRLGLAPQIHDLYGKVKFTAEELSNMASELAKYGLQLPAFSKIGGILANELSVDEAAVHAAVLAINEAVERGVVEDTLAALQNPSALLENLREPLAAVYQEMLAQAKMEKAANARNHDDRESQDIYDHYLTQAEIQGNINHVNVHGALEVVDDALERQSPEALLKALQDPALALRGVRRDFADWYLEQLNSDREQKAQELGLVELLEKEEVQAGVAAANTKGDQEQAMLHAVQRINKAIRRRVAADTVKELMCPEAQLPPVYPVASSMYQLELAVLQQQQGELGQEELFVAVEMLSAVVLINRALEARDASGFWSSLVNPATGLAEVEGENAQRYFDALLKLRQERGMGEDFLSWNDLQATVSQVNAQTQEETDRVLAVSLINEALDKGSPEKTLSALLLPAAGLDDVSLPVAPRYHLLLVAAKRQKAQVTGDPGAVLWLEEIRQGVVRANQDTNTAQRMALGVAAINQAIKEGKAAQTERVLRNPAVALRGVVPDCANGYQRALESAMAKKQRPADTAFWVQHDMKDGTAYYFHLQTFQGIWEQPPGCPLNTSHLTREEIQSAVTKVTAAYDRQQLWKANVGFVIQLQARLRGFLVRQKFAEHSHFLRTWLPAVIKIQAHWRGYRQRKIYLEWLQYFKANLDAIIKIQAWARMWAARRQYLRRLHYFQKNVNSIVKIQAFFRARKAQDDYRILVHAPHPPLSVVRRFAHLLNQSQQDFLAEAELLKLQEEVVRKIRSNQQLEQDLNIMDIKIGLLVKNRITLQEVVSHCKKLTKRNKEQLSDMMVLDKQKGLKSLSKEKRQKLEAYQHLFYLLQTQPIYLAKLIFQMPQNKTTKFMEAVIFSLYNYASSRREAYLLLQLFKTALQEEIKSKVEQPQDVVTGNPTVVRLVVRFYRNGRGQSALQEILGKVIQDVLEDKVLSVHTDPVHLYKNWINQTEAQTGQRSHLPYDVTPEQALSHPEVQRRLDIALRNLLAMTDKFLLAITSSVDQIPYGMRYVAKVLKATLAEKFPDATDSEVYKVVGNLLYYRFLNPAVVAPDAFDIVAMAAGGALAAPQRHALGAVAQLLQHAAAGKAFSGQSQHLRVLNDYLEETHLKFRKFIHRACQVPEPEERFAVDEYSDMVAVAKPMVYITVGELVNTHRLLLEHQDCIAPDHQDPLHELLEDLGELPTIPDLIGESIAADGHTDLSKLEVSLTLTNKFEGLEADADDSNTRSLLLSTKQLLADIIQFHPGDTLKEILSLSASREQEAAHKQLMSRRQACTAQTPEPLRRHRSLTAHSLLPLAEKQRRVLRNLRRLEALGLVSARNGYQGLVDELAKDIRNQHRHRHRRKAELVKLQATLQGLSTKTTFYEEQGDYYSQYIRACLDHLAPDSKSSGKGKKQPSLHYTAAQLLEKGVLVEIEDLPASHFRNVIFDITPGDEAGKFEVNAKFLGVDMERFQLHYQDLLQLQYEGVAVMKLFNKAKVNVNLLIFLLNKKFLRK
UniProt Q68E01, whole entry, looked up: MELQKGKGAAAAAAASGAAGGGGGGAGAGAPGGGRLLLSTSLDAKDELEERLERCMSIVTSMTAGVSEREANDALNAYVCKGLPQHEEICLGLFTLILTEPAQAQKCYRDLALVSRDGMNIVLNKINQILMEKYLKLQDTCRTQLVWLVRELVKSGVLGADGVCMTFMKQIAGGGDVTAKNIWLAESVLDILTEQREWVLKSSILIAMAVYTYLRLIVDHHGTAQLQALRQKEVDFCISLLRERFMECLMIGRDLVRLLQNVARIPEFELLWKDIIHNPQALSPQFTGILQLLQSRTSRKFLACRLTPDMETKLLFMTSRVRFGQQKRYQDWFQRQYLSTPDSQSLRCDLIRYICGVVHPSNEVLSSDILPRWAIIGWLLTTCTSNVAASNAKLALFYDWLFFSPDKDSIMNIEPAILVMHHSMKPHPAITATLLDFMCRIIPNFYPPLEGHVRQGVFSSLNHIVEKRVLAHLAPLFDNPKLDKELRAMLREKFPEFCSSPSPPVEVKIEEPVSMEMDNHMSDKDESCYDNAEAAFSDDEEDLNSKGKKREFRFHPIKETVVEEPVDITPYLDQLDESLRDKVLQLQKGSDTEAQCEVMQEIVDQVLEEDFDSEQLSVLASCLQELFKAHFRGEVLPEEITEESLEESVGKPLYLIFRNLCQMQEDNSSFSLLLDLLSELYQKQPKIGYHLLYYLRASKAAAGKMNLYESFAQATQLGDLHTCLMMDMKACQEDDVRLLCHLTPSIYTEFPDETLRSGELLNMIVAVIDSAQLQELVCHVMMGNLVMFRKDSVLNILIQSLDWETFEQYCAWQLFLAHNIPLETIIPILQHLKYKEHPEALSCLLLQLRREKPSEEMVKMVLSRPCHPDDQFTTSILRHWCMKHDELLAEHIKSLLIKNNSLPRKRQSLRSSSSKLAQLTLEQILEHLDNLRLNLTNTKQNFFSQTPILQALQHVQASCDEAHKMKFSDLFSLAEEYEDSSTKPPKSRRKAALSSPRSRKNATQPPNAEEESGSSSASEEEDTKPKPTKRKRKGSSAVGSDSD
UniProt Q6DN90: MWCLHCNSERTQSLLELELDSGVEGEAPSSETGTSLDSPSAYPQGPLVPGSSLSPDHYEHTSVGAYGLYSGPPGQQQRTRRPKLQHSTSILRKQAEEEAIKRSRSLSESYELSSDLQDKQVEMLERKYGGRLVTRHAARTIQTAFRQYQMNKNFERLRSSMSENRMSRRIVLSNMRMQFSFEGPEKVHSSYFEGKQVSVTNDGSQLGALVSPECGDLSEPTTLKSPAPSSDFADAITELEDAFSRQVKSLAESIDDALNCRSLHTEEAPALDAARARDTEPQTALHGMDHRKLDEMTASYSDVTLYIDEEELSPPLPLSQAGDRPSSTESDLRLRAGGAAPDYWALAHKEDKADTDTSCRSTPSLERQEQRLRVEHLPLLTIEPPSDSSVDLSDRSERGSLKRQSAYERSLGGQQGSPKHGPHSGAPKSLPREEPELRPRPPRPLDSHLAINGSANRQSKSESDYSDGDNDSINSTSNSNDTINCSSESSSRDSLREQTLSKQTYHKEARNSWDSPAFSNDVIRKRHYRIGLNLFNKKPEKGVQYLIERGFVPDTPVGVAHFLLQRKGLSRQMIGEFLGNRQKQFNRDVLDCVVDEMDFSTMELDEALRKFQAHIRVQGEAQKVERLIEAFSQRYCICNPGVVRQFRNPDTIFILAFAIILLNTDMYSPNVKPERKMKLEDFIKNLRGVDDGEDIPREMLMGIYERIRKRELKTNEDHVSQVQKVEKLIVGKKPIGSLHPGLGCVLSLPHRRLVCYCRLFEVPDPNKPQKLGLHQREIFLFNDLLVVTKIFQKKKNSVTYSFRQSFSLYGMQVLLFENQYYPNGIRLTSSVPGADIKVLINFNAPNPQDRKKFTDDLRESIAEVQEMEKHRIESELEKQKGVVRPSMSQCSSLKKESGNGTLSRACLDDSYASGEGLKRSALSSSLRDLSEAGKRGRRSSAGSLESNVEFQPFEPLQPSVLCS
UniProt Q92551: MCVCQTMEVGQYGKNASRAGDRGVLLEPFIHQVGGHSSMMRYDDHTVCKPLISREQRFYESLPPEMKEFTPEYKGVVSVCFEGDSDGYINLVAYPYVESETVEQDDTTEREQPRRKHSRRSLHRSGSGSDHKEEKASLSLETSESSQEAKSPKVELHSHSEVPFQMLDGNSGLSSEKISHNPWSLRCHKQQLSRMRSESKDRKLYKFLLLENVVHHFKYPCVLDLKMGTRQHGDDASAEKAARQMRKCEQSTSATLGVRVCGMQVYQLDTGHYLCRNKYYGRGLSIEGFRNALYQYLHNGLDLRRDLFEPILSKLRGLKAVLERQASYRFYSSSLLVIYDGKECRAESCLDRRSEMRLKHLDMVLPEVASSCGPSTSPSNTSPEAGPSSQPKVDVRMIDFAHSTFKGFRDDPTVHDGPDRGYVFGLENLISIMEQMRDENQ
UniProt P46940, whole entry, looked up: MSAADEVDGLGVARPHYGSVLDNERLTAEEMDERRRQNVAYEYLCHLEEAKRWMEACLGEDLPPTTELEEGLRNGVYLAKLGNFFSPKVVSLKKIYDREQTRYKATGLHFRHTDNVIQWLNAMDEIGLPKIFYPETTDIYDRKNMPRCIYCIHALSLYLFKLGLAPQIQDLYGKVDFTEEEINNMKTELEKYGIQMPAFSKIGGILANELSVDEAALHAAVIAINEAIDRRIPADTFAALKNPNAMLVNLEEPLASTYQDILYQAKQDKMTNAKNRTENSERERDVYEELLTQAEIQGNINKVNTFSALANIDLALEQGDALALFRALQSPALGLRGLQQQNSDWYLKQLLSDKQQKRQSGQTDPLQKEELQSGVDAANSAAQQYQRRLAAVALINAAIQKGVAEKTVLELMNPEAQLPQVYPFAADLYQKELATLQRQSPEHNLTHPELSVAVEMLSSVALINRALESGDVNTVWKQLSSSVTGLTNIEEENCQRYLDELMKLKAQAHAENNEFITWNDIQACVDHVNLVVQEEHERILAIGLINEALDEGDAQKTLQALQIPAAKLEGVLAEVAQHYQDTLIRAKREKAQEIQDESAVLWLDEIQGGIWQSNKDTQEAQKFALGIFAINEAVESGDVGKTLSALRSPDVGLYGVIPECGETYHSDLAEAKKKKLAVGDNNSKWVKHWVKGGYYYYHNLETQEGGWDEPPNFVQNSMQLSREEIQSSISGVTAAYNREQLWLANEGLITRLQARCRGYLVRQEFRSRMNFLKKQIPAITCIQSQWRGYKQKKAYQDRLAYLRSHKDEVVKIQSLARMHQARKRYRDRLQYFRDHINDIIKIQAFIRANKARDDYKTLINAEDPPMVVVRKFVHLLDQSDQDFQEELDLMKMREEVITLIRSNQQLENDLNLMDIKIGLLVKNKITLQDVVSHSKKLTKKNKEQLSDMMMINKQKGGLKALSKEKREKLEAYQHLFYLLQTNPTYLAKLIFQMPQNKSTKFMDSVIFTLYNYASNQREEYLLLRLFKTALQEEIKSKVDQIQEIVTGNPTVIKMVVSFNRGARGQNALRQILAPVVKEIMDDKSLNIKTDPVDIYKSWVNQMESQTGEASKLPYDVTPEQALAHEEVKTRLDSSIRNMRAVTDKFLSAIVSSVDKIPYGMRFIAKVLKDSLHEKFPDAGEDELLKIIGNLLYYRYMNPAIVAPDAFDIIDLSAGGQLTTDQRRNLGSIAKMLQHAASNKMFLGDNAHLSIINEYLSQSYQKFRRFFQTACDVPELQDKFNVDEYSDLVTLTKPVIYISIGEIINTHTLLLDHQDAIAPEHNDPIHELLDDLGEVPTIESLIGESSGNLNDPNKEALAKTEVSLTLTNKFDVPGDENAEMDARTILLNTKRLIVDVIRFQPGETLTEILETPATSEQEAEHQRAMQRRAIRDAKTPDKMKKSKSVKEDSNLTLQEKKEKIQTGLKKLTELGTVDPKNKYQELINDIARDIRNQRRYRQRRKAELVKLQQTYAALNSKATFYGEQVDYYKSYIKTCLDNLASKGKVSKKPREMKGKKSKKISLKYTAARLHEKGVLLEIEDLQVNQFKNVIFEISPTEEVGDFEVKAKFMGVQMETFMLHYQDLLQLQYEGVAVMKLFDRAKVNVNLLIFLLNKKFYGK

Compound: CC1Cc2ccccc2N1C(=O)C1CCCN(C1)C(=O)CCl (mixture of isomers) [TRIM25 ligand 11 (diastereomer mixture)]
Assay: probe-labelled cysteine peptide fold change vs DMSO (competition) (log2 fold change); higher = less target engagement (more negative = stronger competition)
Conditions: THP-1, incubation time: 4 h
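Note: competitive chemoproteomic profiling in live THP-1 cells with an iodoacetamide desthiobiotin (IA-DTB) probe, comparing probe-labelled peptide intensities in compound-treated cells against DMSO-treated controls.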

Target	probe-labelled cysteine peptide fold change (10 µM)	probe-labelled cysteine peptide fold change (50 µM)
ITGB1_P05556_64_CDDLEALKK (UniProt P05556)	-0.0716	0.0347
IQGAP3_Q86VI3_1411_RQACTAQTPEPLRR (UniProt Q86VI3)	0.00454	0.0194
ITFG2_Q969R8_326_LDVTGNGHEEVVACAWDGQTYIIDHNR (UniProt Q969R8)	-0.0863	-0.072
INTS9_Q9NV88_391_QPCVVFTGHPSLR (UniProt Q9NV88)	0.32	0.146
ITGB2_P05107_467_GFLECGICR (UniProt P05107)	-0.0319	0.298
IRGQ_Q8WZA9_28_SALIAALCDK (UniProt Q8WZA9)	-0.00885	-0.0219
INTS3_Q68E01_843_EHPEALSCLLLQLR (UniProt Q68E01)	0.0972	0.175
INTS3_Q68E01_866_PCHPDDQFTTSILR (UniProt Q68E01)	-0.0485	0.115
IQSEC1_Q6DN90_359_ADTDTSCR (UniProt Q6DN90)	-0.0256	-0.0516
INTS4_Q96HW7_109_TAGFSPDCIMDDAINILQNEK (UniProt Q96HW7)	0.138	-0.00119
INTS5_Q6P9B9_821_AVAVTLVESVCPDAAGAELAWPPEEHAR (UniProt Q6P9B9)	0.00893	-0.195
IPO7_O95373_90_ETAPGDISPYTIPEEDRHCIR (UniProt O95373)	0.0712	0.0748
IQGAP3_Q86VI3_646_GVVPDCANGYQR (UniProt Q86VI3)	0.0605	-0.0575
ITGAL_P20701_845_PHSQIPVSCEELPEESR (UniProt P20701)	-0.0366	-0.035
INVS_Q9Y283_702_GQSACVHFRPNEGSDGSR (UniProt Q9Y283)	0.00109	-0.0469
INSR_P06213_1165_NCMVAHDFTVK (UniProt P06213)	0.0305	0.0907
IPO9_Q96P70_90_QYVETHWCAQSEK (UniProt Q96P70)	0.0199	-0.0142
IPO5_O00410_110_KVCDIAAELAR (UniProt O00410)	-0.114	-0.0957
IQSEC1_Q6DN90_260_SLAESIDDALNCR (UniProt Q6DN90)	-0.0275	-0.0141
INTS13_Q9NVM9_494_ESLTEEDVLNCQK (UniProt Q9NVM9)	-0.166	0.107

Single records, from the list above:
ITGB2_P05107_467_GFLECGICR (UniProt P05107) is entered as probe-labelled cysteine peptide fold change (10 µM): -0.0319; probe-labelled cysteine peptide fold change (50 µM): 0.298
INTS3_Q68E01_866_PCHPDDQFTTSILR (UniProt Q68E01) is entered as probe-labelled cysteine peptide fold change (10 µM): -0.0485; probe-labelled cysteine peptide fold change (50 µM): 0.115

Later entries:

Target	probe-labelled cysteine peptide fold change (10 µM)	probe-labelled cysteine peptide fold change (50 µM)
IPO7_O95373_477+484_ACWVLHYFCEVK (UniProt O95373)	0.0454	0.252
IP6K1_Q92551_248_KCEQSTSATLGVR (UniProt Q92551)	-0.0326	-0.0539
IQGAP1_P46940_45_QNVAYEYLCHLEEAKR (UniProt P46940)	-0.0558	0.0295
IPO7_O95373_504_CLIDDREMPVK (UniProt O95373)	-0.299	-0.0557
IRF2BP2_Q7Z5L9_65_AHGCFPEGR (UniProt Q7Z5L9)	-0.0373	-0.239
IP6K1_Q92551_48_YDDHTVCK (UniProt Q92551)	0.0272	-0.101
IQGAP1_P46940_660_SPDVGLYGVIPECGETYHSDLAEAKK (UniProt P46940)	-0.304	-0.189
ITGA5_P08648_192_ILEYAPCR (UniProt P08648)	0.036	0.154
ITGAM_P11215_144_GCPQEDSDIAFLIDGSGSIIPHDFRR (UniProt P11215)	0.35	0.0336
IRAK4_Q9NWZ3_13_CLNVGLIR (UniProt Q9NWZ3)	-0.237	-0.127
ISG20L2_Q9H9L3_295_ADCPENATMSLK (UniProt Q9H9L3)	0.109	0.0246
IRF5_Q13568_44_KLFCIPWR (UniProt Q13568)	-0.551	-0.367
ISOC2_Q96AB3_136_GLQVHVVVDACSSR (UniProt Q96AB3)	-0.181	-0.134
ITGB2_P05107_549_YNGQVCGGPGR (UniProt P05107)	-0.0614	0.0801
INPPL1_O15357_1121_SCSVLQMAK (UniProt O15357)	-0.0594	-0.469
IPO7_O95373_90_NMITQYWPDRETAPGDISPYTIPEEDRHCIR (UniProt O95373)	-0.0447	0.0283
INTS6_Q9UL03_347_KSPQTCWQVYVSNSAK (UniProt Q9UL03)	0.0646	0.0812
ISY1_Q9ULR0_36_RPFLASECTELPK (UniProt Q9ULR0)	-0.0124	0.0391
ITGB1_P05556_618_GICECGVCK (UniProt P05556)	0.078	0.327
